The list shows a part of the results.
Each target was assayed with CC(C)C1=C2N=C(C=C(N2N=C1)NCC3=CC=CC=C3)NCCCCCCN (assay: log2 fold change, soluble protein after heating vs DMSO (PISA); higher = thermal stabilisation; K562 lysate, 10 uM; active = over 0.2 and 3.5 SD of the protein, either way, in both replicates (recomputed)).
Summary of the method: (§1)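 K562 pellets were dounce-homogenised in PBS pH 7.4 containing 1 mM MgCl2, and the crude extract, at 1 mg/mL protein, was exposed to 10 μM compound for 30 min. Aliquots were heated for 3 min across 48°C-58°C, pooled, brought to 0.5% NP-40 at 4°C and spun at 21,000xg for 90 min, with the supernatant taken as soluble protein. TMTpro 16plex LC-MS/MS with equalised channel sums quantified that protein. Values are log-two fold changes in thermal stability relative to solvent controls, taken from duplicates.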

Amino acid sequences for entries named in this document (tags omitted). A change or cut given only in a name is not applied to a line headed by its entry.
UniProt O75865, whole entry, looked up: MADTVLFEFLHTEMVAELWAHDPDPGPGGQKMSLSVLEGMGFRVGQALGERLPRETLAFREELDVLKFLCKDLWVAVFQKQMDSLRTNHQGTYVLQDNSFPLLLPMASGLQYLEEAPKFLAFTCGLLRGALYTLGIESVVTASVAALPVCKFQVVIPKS
UniProt Q9UL33, whole entry, looked up: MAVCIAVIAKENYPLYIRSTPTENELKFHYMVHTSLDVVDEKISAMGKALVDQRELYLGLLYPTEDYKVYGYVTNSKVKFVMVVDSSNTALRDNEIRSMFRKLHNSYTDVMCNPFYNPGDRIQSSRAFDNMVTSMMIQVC
UniProt Q9H892: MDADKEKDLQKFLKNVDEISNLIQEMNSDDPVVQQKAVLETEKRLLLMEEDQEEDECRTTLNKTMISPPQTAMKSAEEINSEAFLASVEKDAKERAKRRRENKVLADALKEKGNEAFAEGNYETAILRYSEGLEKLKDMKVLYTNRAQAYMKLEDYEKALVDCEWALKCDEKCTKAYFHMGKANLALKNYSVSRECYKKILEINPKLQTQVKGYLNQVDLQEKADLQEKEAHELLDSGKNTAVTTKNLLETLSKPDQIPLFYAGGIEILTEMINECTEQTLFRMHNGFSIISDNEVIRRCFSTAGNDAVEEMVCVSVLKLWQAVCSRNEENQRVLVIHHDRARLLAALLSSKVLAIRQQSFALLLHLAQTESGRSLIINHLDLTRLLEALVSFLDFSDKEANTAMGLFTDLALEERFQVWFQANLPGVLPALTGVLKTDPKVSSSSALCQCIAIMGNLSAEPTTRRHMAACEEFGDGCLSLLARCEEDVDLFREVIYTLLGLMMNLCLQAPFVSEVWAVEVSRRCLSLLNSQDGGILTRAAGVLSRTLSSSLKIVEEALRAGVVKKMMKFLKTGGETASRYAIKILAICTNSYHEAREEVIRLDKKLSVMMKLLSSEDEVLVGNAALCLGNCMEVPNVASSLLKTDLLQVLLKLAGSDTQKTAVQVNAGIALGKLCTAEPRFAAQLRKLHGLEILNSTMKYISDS
UniProt P30536, whole entry, looked up: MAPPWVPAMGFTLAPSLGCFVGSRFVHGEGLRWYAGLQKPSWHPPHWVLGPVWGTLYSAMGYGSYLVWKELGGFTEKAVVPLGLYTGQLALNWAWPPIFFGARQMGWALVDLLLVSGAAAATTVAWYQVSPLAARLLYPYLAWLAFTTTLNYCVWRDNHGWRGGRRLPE
UniProt Q13049: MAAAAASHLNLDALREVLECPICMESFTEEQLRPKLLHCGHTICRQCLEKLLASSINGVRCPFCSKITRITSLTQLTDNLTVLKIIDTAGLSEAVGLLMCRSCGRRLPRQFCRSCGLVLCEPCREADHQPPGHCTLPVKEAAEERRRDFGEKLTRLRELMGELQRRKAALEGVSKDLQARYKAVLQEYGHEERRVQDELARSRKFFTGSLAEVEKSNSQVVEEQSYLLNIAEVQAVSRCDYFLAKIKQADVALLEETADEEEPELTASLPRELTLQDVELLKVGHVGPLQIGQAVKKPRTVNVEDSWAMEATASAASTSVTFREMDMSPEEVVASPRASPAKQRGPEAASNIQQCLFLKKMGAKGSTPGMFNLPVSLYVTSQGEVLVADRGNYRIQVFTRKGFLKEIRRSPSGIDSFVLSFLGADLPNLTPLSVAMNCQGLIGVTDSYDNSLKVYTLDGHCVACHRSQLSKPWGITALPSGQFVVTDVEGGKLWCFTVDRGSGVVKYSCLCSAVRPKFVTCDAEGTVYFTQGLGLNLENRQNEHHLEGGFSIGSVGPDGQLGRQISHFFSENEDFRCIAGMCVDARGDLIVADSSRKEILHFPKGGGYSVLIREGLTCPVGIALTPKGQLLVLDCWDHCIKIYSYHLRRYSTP
UniProt Q92574: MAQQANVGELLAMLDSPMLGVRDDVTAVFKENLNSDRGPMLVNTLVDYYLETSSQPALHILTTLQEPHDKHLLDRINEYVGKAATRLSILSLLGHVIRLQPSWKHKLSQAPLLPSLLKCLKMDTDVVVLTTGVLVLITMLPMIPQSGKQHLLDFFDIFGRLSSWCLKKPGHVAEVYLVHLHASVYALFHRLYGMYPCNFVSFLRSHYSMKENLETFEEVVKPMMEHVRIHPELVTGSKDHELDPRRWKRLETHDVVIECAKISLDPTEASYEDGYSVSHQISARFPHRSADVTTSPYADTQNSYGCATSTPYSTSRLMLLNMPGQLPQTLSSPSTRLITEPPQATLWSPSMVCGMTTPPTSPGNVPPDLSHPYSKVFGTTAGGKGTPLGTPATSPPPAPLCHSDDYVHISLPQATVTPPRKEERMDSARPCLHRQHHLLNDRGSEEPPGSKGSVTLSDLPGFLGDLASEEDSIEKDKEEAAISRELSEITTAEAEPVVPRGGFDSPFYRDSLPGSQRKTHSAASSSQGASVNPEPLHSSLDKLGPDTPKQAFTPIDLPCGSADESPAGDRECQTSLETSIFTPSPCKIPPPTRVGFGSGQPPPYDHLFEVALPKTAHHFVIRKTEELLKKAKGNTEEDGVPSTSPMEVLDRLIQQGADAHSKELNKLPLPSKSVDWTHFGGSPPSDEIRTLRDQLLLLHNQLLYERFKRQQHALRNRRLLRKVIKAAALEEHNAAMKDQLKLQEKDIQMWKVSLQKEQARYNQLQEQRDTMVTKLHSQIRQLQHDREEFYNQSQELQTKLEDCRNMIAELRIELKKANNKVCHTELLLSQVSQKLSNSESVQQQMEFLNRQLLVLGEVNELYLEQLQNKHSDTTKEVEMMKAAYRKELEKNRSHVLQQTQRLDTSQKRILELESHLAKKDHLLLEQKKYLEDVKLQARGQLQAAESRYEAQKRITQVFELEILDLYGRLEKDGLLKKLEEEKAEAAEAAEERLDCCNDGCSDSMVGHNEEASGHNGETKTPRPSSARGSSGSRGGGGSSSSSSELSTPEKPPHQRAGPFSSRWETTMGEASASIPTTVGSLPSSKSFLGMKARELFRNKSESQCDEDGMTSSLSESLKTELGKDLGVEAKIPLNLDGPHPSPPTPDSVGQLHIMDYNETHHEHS
UniProt Q96Q11: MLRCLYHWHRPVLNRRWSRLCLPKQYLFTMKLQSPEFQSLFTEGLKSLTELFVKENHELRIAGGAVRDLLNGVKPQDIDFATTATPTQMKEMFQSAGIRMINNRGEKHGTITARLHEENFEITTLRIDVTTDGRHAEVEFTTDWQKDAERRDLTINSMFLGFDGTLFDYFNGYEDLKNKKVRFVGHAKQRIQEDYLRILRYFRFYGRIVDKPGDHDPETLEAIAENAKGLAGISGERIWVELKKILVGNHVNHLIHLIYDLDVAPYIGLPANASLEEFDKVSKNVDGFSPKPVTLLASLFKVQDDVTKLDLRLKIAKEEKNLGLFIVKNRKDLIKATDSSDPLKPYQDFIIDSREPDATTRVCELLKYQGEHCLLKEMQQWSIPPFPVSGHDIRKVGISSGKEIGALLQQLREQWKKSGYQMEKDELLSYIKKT
UniProt Q9C035: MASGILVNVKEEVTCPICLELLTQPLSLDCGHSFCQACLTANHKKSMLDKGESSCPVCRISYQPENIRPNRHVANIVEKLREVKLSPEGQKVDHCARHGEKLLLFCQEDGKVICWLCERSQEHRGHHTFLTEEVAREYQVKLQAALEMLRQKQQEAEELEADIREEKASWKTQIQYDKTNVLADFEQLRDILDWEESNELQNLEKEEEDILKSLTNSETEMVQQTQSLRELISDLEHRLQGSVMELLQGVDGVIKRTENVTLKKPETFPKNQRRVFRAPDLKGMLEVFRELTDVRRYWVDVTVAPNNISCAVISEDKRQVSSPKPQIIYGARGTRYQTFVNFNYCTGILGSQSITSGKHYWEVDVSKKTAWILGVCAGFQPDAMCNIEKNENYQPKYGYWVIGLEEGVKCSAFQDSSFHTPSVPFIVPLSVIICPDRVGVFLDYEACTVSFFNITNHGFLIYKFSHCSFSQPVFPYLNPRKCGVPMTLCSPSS
UniProt O75157: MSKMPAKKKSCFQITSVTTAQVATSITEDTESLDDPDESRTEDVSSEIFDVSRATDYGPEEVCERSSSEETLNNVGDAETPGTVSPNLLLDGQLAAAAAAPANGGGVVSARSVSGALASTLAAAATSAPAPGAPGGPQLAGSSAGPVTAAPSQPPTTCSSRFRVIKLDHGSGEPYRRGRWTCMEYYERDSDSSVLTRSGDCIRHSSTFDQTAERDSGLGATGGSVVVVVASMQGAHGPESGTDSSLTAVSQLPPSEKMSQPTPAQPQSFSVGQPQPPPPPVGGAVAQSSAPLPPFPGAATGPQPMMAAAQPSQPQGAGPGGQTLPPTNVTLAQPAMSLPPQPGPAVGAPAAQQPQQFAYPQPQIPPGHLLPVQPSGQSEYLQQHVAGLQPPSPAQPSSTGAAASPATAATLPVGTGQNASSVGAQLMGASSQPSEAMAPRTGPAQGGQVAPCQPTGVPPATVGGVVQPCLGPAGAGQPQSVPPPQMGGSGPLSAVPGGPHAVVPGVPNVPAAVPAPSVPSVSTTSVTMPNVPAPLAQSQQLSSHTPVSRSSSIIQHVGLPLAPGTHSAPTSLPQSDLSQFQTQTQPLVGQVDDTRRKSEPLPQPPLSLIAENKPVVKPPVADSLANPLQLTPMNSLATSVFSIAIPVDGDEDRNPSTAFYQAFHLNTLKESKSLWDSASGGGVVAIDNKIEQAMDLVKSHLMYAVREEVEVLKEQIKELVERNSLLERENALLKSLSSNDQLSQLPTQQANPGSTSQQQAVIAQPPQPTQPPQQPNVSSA
UniProt Q96F44: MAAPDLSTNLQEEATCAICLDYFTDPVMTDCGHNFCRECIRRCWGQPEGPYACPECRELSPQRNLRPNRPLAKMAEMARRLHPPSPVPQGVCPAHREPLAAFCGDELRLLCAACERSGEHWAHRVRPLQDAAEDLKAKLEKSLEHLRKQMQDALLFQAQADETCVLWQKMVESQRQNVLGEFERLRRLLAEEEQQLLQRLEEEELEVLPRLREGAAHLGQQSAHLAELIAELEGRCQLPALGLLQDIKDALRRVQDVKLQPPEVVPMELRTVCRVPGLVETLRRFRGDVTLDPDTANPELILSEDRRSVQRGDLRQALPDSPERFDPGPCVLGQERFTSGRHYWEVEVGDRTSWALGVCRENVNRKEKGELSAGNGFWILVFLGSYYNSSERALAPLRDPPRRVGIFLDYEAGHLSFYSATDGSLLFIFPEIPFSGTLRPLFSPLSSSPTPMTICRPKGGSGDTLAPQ
UniProt Q99598: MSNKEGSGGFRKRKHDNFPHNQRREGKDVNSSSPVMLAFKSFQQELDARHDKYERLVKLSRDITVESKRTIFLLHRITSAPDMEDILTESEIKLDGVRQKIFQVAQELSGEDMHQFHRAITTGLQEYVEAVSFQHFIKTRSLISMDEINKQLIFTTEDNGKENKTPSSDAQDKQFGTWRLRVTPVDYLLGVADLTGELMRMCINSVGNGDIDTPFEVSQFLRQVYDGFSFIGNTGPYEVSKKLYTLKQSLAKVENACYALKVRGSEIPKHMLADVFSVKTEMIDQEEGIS
UniProt Q15645: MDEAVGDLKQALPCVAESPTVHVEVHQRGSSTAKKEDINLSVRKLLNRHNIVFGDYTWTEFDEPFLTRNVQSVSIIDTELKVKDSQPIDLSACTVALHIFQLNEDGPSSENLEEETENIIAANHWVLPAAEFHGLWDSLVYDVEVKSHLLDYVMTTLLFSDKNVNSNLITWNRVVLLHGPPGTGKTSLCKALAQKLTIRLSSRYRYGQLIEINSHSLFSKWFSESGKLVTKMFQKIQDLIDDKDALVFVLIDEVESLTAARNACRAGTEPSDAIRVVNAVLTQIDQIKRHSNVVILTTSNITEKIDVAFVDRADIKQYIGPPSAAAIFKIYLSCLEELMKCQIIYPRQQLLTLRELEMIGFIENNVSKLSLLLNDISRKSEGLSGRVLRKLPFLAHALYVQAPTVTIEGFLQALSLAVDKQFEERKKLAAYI
UniProt Q32P41: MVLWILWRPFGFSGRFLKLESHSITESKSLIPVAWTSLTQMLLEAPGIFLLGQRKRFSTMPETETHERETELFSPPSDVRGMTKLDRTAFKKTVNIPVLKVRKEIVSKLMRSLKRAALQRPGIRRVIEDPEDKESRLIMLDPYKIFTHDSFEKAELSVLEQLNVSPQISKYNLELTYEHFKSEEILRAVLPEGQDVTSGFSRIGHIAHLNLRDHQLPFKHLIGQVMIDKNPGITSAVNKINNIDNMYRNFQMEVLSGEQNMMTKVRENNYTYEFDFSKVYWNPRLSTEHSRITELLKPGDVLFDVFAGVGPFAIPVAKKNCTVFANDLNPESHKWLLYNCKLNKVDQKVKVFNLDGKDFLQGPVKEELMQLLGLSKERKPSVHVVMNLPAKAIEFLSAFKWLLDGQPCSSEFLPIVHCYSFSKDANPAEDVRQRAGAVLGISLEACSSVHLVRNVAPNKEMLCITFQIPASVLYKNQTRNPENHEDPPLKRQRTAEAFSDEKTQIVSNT
UniProt Q8N5M4: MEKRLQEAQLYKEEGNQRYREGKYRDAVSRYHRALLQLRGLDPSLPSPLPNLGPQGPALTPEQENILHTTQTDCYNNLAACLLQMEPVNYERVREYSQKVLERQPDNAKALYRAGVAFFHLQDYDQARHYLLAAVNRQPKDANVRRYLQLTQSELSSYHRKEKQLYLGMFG

Target	log2 fold change
TRRAP (UniProt Q9Y4A5)	inactive: -0.02
TSEN54 (UniProt Q7Z6J9)	inactive: -0.048
TRAPPC2 isoform 3 (UniProt P0DI81)	inactive: -0.039
TSC2 isoform 4 (UniProt P49815)	inactive: 0.043
TRAPPC6A isoform 2 (UniProt O75865)	inactive: -0.031
TRMT11 (UniProt Q7Z4G4)	inactive: -0.028
TTC4 (UniProt O95801)	inactive: 0.03
TRAM1 (UniProt Q15629)	inactive: -0.038
TRIP10 isoform 2 (UniProt Q15642)	inactive: -0.003
TRMT61A (UniProt Q96FX7)	inactive: -0.019
TRAPPC2L (UniProt Q9UL33)	inactive: 0.005
TTC12 isoform 2 (UniProt Q9H892)	inactive: -0.032
TSPO (UniProt P30536)	inactive: -0.031
TTC5 (UniProt Q8N0Z6)	inactive: 0.042
TRIM32 (UniProt Q13049)	inactive: -0.032
TRAPPC11 (UniProt Q7Z392)	inactive: 0.012
TSC1 (UniProt Q92574)	inactive: -0.003

Target	log2 fold change
TRIM33 isoform 2 (UniProt Q9UPN9)	inactive: -0.026
TRNT1 (UniProt Q96Q11)	inactive: 0.009
TRMT61B (UniProt Q9BVS5)	inactive: -0.002
TRIM5 (UniProt Q9C035)	inactive: -0.036
TSPAN13 (UniProt O95857)	inactive: -0.083
TRIM25 (UniProt Q14258)	inactive: -0.011
TRPC4AP (UniProt Q8TEL6)	inactive: 0.007
TSC22D2 (UniProt O75157)	inactive: 0.027
TRIM11 (UniProt Q96F44)	inactive: -0.011
TSNAX (UniProt Q99598)	inactive: -0.006
TRAPPC13 isoform 4 (UniProt A5PLN9)	inactive: -0.003
TRIP13 (UniProt Q15645)	inactive: -0.022
TSR2 (UniProt Q969E8)	inactive: -0.014
TRMT5 (UniProt Q32P41)	inactive: 0.005
TTC9C (UniProt Q8N5M4)	inactive: 0.013
TRAF6 (UniProt Q9Y4K3)	inactive: -0.041

What follows are targets tested with CC1=C(C(CC(=O)N1)C2=CC=C(C=C2)C(F)(F)F)C(=O)NC3=C(C=C4C(=C3)C=NN4)F in the same assay as above.
Summary of the method: as §1

Target	log2 fold change
TRRAP (UniProt Q9Y4A5)	inactive: 0.04
TSEN54 (UniProt Q7Z6J9)	inactive: 0.053
TRAPPC2 isoform 3 (UniProt P0DI81)	inactive: -0.116
TSC2 isoform 4 (UniProt P49815)	inactive: -0.026
TRAPPC6A isoform 2 (UniProt O75865)	inactive: -0.052
TRMT11 (UniProt Q7Z4G4)	inactive: 0.001
TTC4 (UniProt O95801)	inactive: -0.029
TRAM1 (UniProt Q15629)	inactive: 0.065
TRIP10 isoform 2 (UniProt Q15642)	inactive: 0.086
TRMT61A (UniProt Q96FX7)	inactive: 0.043
TRAPPC2L (UniProt Q9UL33)	inactive: 0.153
TTC12 isoform 2 (UniProt Q9H892)	inactive: -0.049
TSPO (UniProt P30536)	inactive: -0.01
TTC5 (UniProt Q8N0Z6)	inactive: -0.089
TRIM32 (UniProt Q13049)	inactive: -0.007
TRAPPC11 (UniProt Q7Z392)	inactive: 0
TSC1 (UniProt Q92574)	inactive: -0.001

Target	log2 fold change
TRIM33 isoform 2 (UniProt Q9UPN9)	inactive: 0.01
TRNT1 (UniProt Q96Q11)	inactive: -0.039
TRMT61B (UniProt Q9BVS5)	inactive: -0.017
TRIM5 (UniProt Q9C035)	inactive: 0.03
TSPAN13 (UniProt O95857)	inactive: 0.102
TRIM25 (UniProt Q14258)	inactive: -0.002
TRPC4AP (UniProt Q8TEL6)	inactive: 0.018
TSC22D2 (UniProt O75157)	inactive: -0.014
TRIM11 (UniProt Q96F44)	inactive: -0.067
TSNAX (UniProt Q99598)	inactive: 0.006
TRAPPC13 isoform 4 (UniProt A5PLN9)	inactive: -0.006
TRIP13 (UniProt Q15645)	inactive: -0.004
TSR2 (UniProt Q969E8)	inactive: 0.024
TRMT5 (UniProt Q32P41)	inactive: 0.037
TTC9C (UniProt Q8N5M4)	inactive: -0.025
TRAF6 (UniProt Q9Y4K3)	inactive: 0.074

Each target was assayed with CC1=C(C2=C(C=C1)C(=O)C3=CC=CC=C3N2CCCN)C in the same assay as above.
Summary of the method: as §1

Target	log2 fold change
TRRAP (UniProt Q9Y4A5)	inactive: -0.012
TSEN54 (UniProt Q7Z6J9)	inactive: -0.012
TRAPPC2 isoform 3 (UniProt P0DI81)	inactive: -0.204
TSC2 isoform 4 (UniProt P49815)	inactive: -0.046
TRAPPC6A isoform 2 (UniProt O75865)	inactive: 0.012
TRMT11 (UniProt Q7Z4G4)	inactive: 0.037
TTC4 (UniProt O95801)	inactive: -0.033
TRAM1 (UniProt Q15629)	inactive: -0.067
TRIP10 isoform 2 (UniProt Q15642)	inactive: -0.086
TRMT61A (UniProt Q96FX7)	inactive: 0.03
TRAPPC2L (UniProt Q9UL33)	inactive: 0.033
TTC12 isoform 2 (UniProt Q9H892)	inactive: -0.042
TSPO (UniProt P30536)	inactive: -0.022
TTC5 (UniProt Q8N0Z6)	inactive: -0.01
TRIM32 (UniProt Q13049)	inactive: 0.434
TRAPPC11 (UniProt Q7Z392)	inactive: -0.019
TSC1 (UniProt Q92574)	inactive: -0.06

Target	log2 fold change
TRIM33 isoform 2 (UniProt Q9UPN9)	inactive: 0
TRNT1 (UniProt Q96Q11)	inactive: 0.013
TRMT61B (UniProt Q9BVS5)	inactive: 0
TRIM5 (UniProt Q9C035)	inactive: -0.021
TSPAN13 (UniProt O95857)	inactive: 0.036
TRIM25 (UniProt Q14258)	inactive: -0.005
TRPC4AP (UniProt Q8TEL6)	inactive: -0.041
TSC22D2 (UniProt O75157)	inactive: -0.061
TRIM11 (UniProt Q96F44)	inactive: -0.04
TSNAX (UniProt Q99598)	inactive: -0.007
TRAPPC13 isoform 4 (UniProt A5PLN9)	inactive: -0.089
TRIP13 (UniProt Q15645)	inactive: 0.006
TSR2 (UniProt Q969E8)	inactive: -0.068
TRMT5 (UniProt Q32P41)	inactive: 0.002
TTC9C (UniProt Q8N5M4)	inactive: 0.003
TRAF6 (UniProt Q9Y4K3)	inactive: 0.005

Source: the supplement of paper PMC10849652
